Source: PubChem BioAssay AID504744 (Drosophila RNAi Screening Center, 2011)

- Screen: 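Find genes whose loss alters insulin-driven dAkt phosphorylation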 (primary screen)
- System: Drosophila Kc167 cells
- Knock-down reagent: long dsRNA against Drosophila genes, 250 ng dsRNA per well of a 384-well plate
- Timing: 3 days of knock-down, then overnight serum-free starvation before stimulation
- Conditions: bovine insulin at 387 nM for 10 minutes after 12 h without serum
- Measured: 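In-cell antibody fluorescence for phospho-dAkt in each well over DNA-dye signal, with log2 residuals expressed as z-scores adjusted for cell count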
- Hit rule: 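Hit in the insulin screen when the two-replicate mean z-score is more extreme than plus or minus 2.5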
The screen tested about 23,000 reagents; below is a random part of those that have a named target and a result. Over the whole deposit, 98 (0.43%) are marked active. 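Only hit calls are given; the phospho-dAkt signals, z-scores and hit direction were not deposited.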 Names joined by + are all predicted targets of the reagent. Reagent sequences are not shown.

Hex-C (Hexokinase C) [SID104186871]
- Outcome: inactive

Ten-a (Tenascin accessory) [SID104198716]
- Outcome: inactive

Ten-a (Tenascin accessory) [SID104199288]
- Outcome: inactive

Ten-a (Tenascin accessory) [SID104199492]
- Outcome: inactive

Ten-a (Tenascin accessory) [SID104199585]
- Outcome: inactive

Ten-a (Tenascin accessory) [SID104199656]
- Outcome: inactive

Ten-a (Tenascin accessory) [SID104199657]
- Outcome: inactive

Ten-a (Tenascin accessory) [SID104200082]
- Outcome: inactive

Ten-a (Tenascin accessory) [SID104201199]
- Outcome: inactive

CG1888 [SID104186589]
- Outcome: inactive

Zip48C (Zinc/iron regulated transporter-related protein 48C) [SID104186106]
- Outcome: inactive

CG31097 [SID104194458]
- Outcome: inactive

CG1575 [SID104197861]
- Outcome: inactive

CG15890 [SID104199529]
- Outcome: inactive

CG6938 [SID104190544]
- Outcome: inactive

CG30286 [SID104183862]
- Outcome: inactive

CheB74a (Chemosensory protein B 74a) [SID104189295]
- Outcome: inactive

hdm (hold'em) [SID104197805]
- Outcome: inactive

Tdc1 (Tyrosine decarboxylase 1) [SID104184734]
- Outcome: inactive

CG13599 [SID104194394]
- Outcome: inactive

Amacr (Alpha-methylacyl-CoA racemase) [SID104182990]
- Outcome: inactive

ben (bendless) [SID104200102]
- Outcome: inactive

ben (bendless) [SID104201053]
- Outcome: inactive

CG3513 [SID104180400]
- Outcome: inactive

Sap130 (Sin3A-associated protein 130) [SID104189472]
- Outcome: inactive

Or1a (Odorant receptor 1a) [SID104198481]
- Outcome: inactive

Rnp4F (RNA-binding protein 4F) [SID104198498]
- Outcome: inactive

CG15579 [SID104197859]
- Outcome: inactive

Pgm2a (Phosphoglucomutase 2a) [SID104186860]
- Outcome: inactive

CG14244 [SID104194531]
- Outcome: inactive

CG5986 [SID104195723]
- Outcome: inactive

retinin [SID104189732]
- Outcome: inactive

CG1889 + CG43386 [SID104197771]
- Outcome: inactive

Cpr65Eb (Cuticular protein 65Eb) [SID104190818]
- Outcome: inactive

CG11034 [SID104181913]
- Outcome: inactive

CG11034 [SID104181914]
- Outcome: inactive

SmydA-6 (SET and MYND domain containing, arthropod-specific, member 6) [SID104187133]
- Outcome: inactive

aust (australin) [SID104182350]
- Outcome: inactive

CG15260 [SID104181769]
- Outcome: inactive

Laid out differently: results already given
predicted target,PubChem SID,Outcome
CheB74a (Chemosensory protein B 74a),SID104189295,inactive
hdm (hold'em),SID104197805,inactive
Tdc1 (Tyrosine decarboxylase 1),SID104184734,inactive
CG13599,SID104194394,inactive
